Results are given in words; binding and its absence hold for the method and conditions named. Some entries that bind do so weakly or less than the wild type.
Tests used:
[1] = target: T1, Cy5-labeled thermolysin (Geobacillus stearothermophilus) (UniProt P00800); assay: reducing SDS-PAGE of covalent conjugation products with Cy5 fluorescence; A2ML1 digested with Cy5-labeled thermolysin or Cy5-labeled acetylated thermolysin at pH 5, 6 or 7 in 50 mM sodium acetate, 137 mM NaCl, 5 mM CaCl2; molar ratio protease:A2ML1 1:2 (methods) or 1:1; both …
T1 sequence (chain, Cy5 (mono NHS ester), about 0.6,1 molar ratio of Cy5 to thermolysin): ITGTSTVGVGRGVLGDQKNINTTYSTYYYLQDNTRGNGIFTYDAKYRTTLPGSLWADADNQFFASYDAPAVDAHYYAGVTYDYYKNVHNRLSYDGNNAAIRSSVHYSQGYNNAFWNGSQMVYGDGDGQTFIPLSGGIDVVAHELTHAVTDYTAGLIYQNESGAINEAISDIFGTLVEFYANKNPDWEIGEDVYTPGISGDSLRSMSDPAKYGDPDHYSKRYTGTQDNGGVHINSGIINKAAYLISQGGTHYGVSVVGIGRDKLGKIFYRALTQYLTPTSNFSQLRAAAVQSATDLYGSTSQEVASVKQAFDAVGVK

Protein sequences, listed by entry. Tags and fused reporters are not part of them. Residues count along the entry.
UniProt P0C1U8, residues 69-336: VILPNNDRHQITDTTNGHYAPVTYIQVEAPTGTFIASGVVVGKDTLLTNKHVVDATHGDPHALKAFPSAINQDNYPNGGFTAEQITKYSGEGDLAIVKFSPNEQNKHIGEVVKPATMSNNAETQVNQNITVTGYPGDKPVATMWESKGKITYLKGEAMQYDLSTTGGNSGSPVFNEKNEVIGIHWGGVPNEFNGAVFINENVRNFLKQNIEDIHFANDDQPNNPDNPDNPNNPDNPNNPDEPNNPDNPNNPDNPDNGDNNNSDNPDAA

[2] = target: T2, Thermolysin from Geobacillus stearothermophilus, unmodified (Geobacillus stearothermophilus) (UniProt P00800); assay: reducing SDS-PAGE of covalent conjugation products + LC-MS/MS of in-gel digested bands; A2ML1 digested with thermolysin or acetylated thermolysin at up to 1:1 molar ratio protease:A2ML1, HBS (20 mM HEPES, 150 mM NaCl, pH 7.4) with 5 mM CaCl2, with and without 50 mM BAPN, 15 min 37°C, stopped with 10 mM EDTA; both purified
T2 sequence: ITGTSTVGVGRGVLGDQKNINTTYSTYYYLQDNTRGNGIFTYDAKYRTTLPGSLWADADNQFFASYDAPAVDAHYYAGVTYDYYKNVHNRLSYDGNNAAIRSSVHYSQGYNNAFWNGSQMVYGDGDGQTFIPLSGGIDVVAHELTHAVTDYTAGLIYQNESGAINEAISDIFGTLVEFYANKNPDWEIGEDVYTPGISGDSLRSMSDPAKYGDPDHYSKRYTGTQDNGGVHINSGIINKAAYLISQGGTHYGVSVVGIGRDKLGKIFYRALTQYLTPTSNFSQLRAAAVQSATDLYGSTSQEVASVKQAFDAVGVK

[3] = target: T2, Thermolysin from Geobacillus stearothermophilus, unmodified (Geobacillus stearothermophilus); assay: as above; remark: listed apart in the source
[4] = target: Streptococcus aureus glutamyl endoprotease, GluC (Streptococcus aureus (so in the source)) (UniProt P0C1U8); assay: reducing SDS-PAGE of covalent conjugation products + Edman degradation and LC-MS/MS of bands; A2ML1 digested with HNE, CatG (up to 1:1 molar ratio protease:A2ML1, HBS with and without 50 mM BAPN, 15 min 37°C, stopped with 2 mM PMSF) or GluC (conditions not told); Fig. S2; both purified
Cathepsin G (CatG) = target: T3, Cathepsin G (CatG) (UniProt P08311); assay: as above
T3 sequence: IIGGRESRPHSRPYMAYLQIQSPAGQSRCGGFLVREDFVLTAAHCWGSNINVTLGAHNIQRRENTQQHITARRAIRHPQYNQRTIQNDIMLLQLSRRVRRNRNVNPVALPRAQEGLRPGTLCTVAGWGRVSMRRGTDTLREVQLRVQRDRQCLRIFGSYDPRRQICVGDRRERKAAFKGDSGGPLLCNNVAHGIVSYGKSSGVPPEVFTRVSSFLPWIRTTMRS

[5] = target: T2, Thermolysin from Geobacillus stearothermophilus, unmodified (Geobacillus stearothermophilus); assay: LC-MS/MS of crosslinked peptides from the pepsin-digested conjugation product band; the ∼150-kDa band (band 1) of WT A2ML1 with thermolysin or acetylated thermolysin digested in gel with pepsin at pH 3; HCD and EThcD MS2; Byonic search, assignments judged by hand; both purified
[6] = target: T1, Cy5-labeled thermolysin (Geobacillus stearothermophilus); assay: reducing SDS-PAGE of covalent conjugation products with Cy5 fluorescence; plasma-purified A2M or A2M N1088H cleaved with Cy5-labeled thermolysin or Cy5-labeled acetylated thermolysin; Coomassie and Cy5 fluorescence images; both purified

B1: Human α2-macroglobulin-like protein 1 (A2ML1), recombinant wild type (natural protein, UniProt A8K2U0-1 18-1454, looked up)
chain: EELPNYLVTLPARLNFPSVQKVCLDLSPGYSDVKFTVTLETKDKTQKLLEYSGLKKRHLHCISFLVPPPAGGTEEVATIRVSGVGNNISFEEKKKVLIQRQGNGTFVQTDKPLYTPGQQVYFRIVTMDSNFVPVNDKYSMVELQDPNSNRIAQWLEVVPEQGIVDLSFQLAPEAMLGTYTVAVAEGKTFGTFSVEEYVLPKFKVEVVEPKELSTVQESFLVKICCRYTYGKPMLGAVQVSVCQKANTYWYREVEREQLPDKCRNLSGQTDKTGCFSAPVDMATFDLIGYAYSHQINIVATVVEEGTGVEANATQNIYISPQMGSMTFEDTSNFYHPNFPFSGKIRVRGHDDSFLKNHLVFLVIYGTNGTFNQTLVTDNNGLAPFTLETSGWNGTDVSLEGKFQMEDLVYNPEQVPRYYQNAYLHLRPFYSTTRSFLGIHRLNGPLKCGQPQEVLVDYYIDPADASPDQEISFSYYLIGKGSLVMEGQKHLNSKKKGLKASFSLSLTFTSRLAPDPSLVIYAIFPSGGVVADKIQFSVEMCFDNQVSLGFSPSQQLPGAEVELQLQAAPGSLCALRAVDESVLLLRPDRELSNRSVYGMFPFWYGHYPYQVAEYDQCPVSGPWDFPQPLIDPMPQGHSSQRSIIWRPSFSEGTDLFSFFRDVGLKILSNAKIKKPVDCSHRSPEYSTAMGAGGGHPEAFESSTPLHQAEDSQVRQYFPETWLWDLFPIGNSGKEAVHVTVPDAITEWKAMSFCTSQSRGFGLSPTVGLTAFKPFFVDLTLPYSVVRGESFRLTATIFNYLKDCIRVQTDLAKSHEYQLESWADSQTSSCLCADDAKTHHWNITAVKLGHINFTISTKILDSNEPCGGQKGFVPQKGRSDTLIKPVLVKPEGVLVEKTHSSLLCPKGKVASESVSLELPVDIVPDSTKAYVTVLGDIMGTALQNLDGLVQMPSGCGEQNMVLFAPIIYVLQYLEKAGLLTEEIRSRAVGFLEIGYQKELMYKHSNGSYSAFGERDGNGNTWLTAFVTKCFGQAQKFIFIDPKNIQDALKWMAGNQLPSGCYANVGNLLHTAMKGGVDDEVSLTAYVTAALLEMGKDVDDPMVSQGLRCLKNSATSTTNLYTQALLAYIFSLAGEMDIRNILLKQLDQQAIISGESIYWSQKPTPSSNASPWSEPAAVDVELTAYALLAQLTKPSLTQKEIAKATSIVAWLAKQHNAYGGFSSTQDTVVALQALAKYATTAYMPSEEINLVVKSTENFQRTFNIQSVNRLVFQQDTLPNVPGMYTLEASGQGCVYVQTVLRYNILPPTNMKTFSLSVEIGKARCEQPTSPRSLTLTIHTSYVGSRSSSNMAIVEVKMLSGFSPMEGTNQLLLQQPLVKKVEFGTDTLNIYLDELIKNTQTYTFTISQSVLVTNLKPATIKVYDYYLPDEQATIQYSDPCE
modifications: internal thiol ester in which Gln-973 participates
binding [1]: binds | binding [2]: no binding (condition: with 50 mM BAPN) | binding [3]: binds | binding [4]: no binding | binding (Cathepsin G (CatG)): binds | binding [5]: binds

B2: A2ML1 H1084N mutant (natural protein, human, UniProt A8K2U0-1 18-1454, looked up)
chain: EELPNYLVTLPARLNFPSVQKVCLDLSPGYSDVKFTVTLETKDKTQKLLEYSGLKKRHLHCISFLVPPPAGGTEEVATIRVSGVGNNISFEEKKKVLIQRQGNGTFVQTDKPLYTPGQQVYFRIVTMDSNFVPVNDKYSMVELQDPNSNRIAQWLEVVPEQGIVDLSFQLAPEAMLGTYTVAVAEGKTFGTFSVEEYVLPKFKVEVVEPKELSTVQESFLVKICCRYTYGKPMLGAVQVSVCQKANTYWYREVEREQLPDKCRNLSGQTDKTGCFSAPVDMATFDLIGYAYSHQINIVATVVEEGTGVEANATQNIYISPQMGSMTFEDTSNFYHPNFPFSGKIRVRGHDDSFLKNHLVFLVIYGTNGTFNQTLVTDNNGLAPFTLETSGWNGTDVSLEGKFQMEDLVYNPEQVPRYYQNAYLHLRPFYSTTRSFLGIHRLNGPLKCGQPQEVLVDYYIDPADASPDQEISFSYYLIGKGSLVMEGQKHLNSKKKGLKASFSLSLTFTSRLAPDPSLVIYAIFPSGGVVADKIQFSVEMCFDNQVSLGFSPSQQLPGAEVELQLQAAPGSLCALRAVDESVLLLRPDRELSNRSVYGMFPFWYGHYPYQVAEYDQCPVSGPWDFPQPLIDPMPQGHSSQRSIIWRPSFSEGTDLFSFFRDVGLKILSNAKIKKPVDCSHRSPEYSTAMGAGGGHPEAFESSTPLHQAEDSQVRQYFPETWLWDLFPIGNSGKEAVHVTVPDAITEWKAMSFCTSQSRGFGLSPTVGLTAFKPFFVDLTLPYSVVRGESFRLTATIFNYLKDCIRVQTDLAKSHEYQLESWADSQTSSCLCADDAKTHHWNITAVKLGHINFTISTKILDSNEPCGGQKGFVPQKGRSDTLIKPVLVKPEGVLVEKTHSSLLCPKGKVASESVSLELPVDIVPDSTKAYVTVLGDIMGTALQNLDGLVQMPSGCGEQNMVLFAPIIYVLQYLEKAGLLTEEIRSRAVGFLEIGYQKELMYKHSNGSYSAFGERDGNGNTWLTAFVTKCFGQAQKFIFIDPKNIQDALKWMAGNQLPSGCYANVGNLLNTAMKGGVDDEVSLTAYVTAALLEMGKDVDDPMVSQGLRCLKNSATSTTNLYTQALLAYIFSLAGEMDIRNILLKQLDQQAIISGESIYWSQKPTPSSNASPWSEPAAVDVELTAYALLAQLTKPSLTQKEIAKATSIVAWLAKQHNAYGGFSSTQDTVVALQALAKYATTAYMPSEEINLVVKSTENFQRTFNIQSVNRLVFQQDTLPNVPGMYTLEASGQGCVYVQTVLRYNILPPTNMKTFSLSVEIGKARCEQPTSPRSLTLTIHTSYVGSRSSSNMAIVEVKMLSGFSPMEGTNQLLLQQPLVKKVEFGTDTLNIYLDELIKNTQTYTFTISQSVLVTNLKPATIKVYDYYLPDEQATIQYSDPCE
modifications: internal thiol ester in which Gln-973 participates
binding [1]: binds | binding [2]: no binding (condition: with 50 mM BAPN) | binding [3]: binds | binding (Cathepsin G (CatG)): binds

B3: Human α2-macroglobulin (A2M), wild type, purified from plasma (protein, UniProt P01023 24-1474)
chain: SVSGKPQYMVLVPSLLHTETTEKGCVLLSYLNETVTVSASLESVRGNRSLFTDLEAENDVLHCVAFAVPKSSSNEEVMFLTVQVKGPTQEFKKRTTVMVKNEDSLVFVQTDKSIYKPGQTVKFRVVSMDENFHPLNELIPLVYIQDPKGNRIAQWQSFQLEGGLKQFSFPLSSEPFQGSYKVVVQKKSGGRTEHPFTVEEFVLPKFEVQVTVPKIITILEEEMNVSVCGLYTYGKPVPGHVTVSICRKYSDASDCHGEDSQAFCEKFSGQLNSHGCFYQQVKTKVFQLKRKEYEMKLHTEAQIQEEGTVVELTGRQSSEITRTITKLSFVKVDSHFRQGIPFFGQVRLVDGKGVPIPNKVIFIRGNEANYYSNATTDEHGLVQFSINTTNVMGTSLTVRVNYKDRSPCYGYQWVSEEHEEAHHTAYLVFSPSKSFVHLEPMSHELPCGHTQTVQAHYILNGGTLLGLKKLSFYYLIMAKGGIVRTGTHGLLVKQEDMKGHFSISIPVKSDIAPVARLLIYAVLPTGDVIGDSAKYDVENCLANKVDLSFSPSQSLPASHAHLRVTAAPQSVCALRAVDQSVLLMKPDAELSASSVYNLLPEKDLTGFPGPLNDQDNEDCINRHNVYINGITYTPVSSTNEKDMYSFLEDMGLKAFTNSKIRKPKMCPQLQQYEMHGPEGLRVGFYESDVMGRGHARLVHVEEPHTETVRKYFPETWIWDLVVVNSAGVAEVGVTVPDTITEWKAGAFCLSEDAGLGISSTASLRAFQPFFVELTMPYSVIRGEAFTLKATVLNYLPKCIRVSVQLEASPAFLAVPVEKEQAPHCICANGRQTVSWAVTPKSLGNVNFTVSAEALESQELCGTEVPSVPEHGRKDTVIKPLLVEPEGLEKETTFNSLLCPSGGEVSEELSLKLPPNVVEESARASVSVLGDILGSAMQNTQNLLQMPYGCGEQNMVLFAPNIYVLDYLNETQQLTPEIKSKAIGYLNTGYQRQLNYKHYDGSYSTFGERYGRNQGNTWLTAFVLKTFAQARAYIFIDEAHITQALIWLSQRQKDNGCFRSSGSLLNNAIKGGVEDEVTLSAYITIALLEIPLTVTHPVVRNALFCLESAWKTAQEGDHGSHVYTKALLAYAFALAGNQDKRKEVLKSLNEEAVKKDNSVHWERPQKPKAPVGHFYEPQAPSAEVEMTSYVLLAYLTAQPAPTSEDLTSATNIVKWITKQQNAQGGFSSTQDTVVALHALSKYGAATFTRTGKAAQVTIQSSGTFSSKFQVDNNNRLLLQQVSLPELPGEYSMKVTGEGCVYLQTSLKYNILPEKEEFPFALGVQTLPQTCDEPKAHTSFQISLSVSYTGSRSASNMAIVDVKMVSGFIPLKPTVKMLERSNHVSRTEVSSNHVLIYLDKVSNQTLSLFFTVLQDVPVRDLKPAIVKVYDYYETDEFAIAEYNAPCSKDLGNA
modifications: internal thiol ester in which Gln-975 participates
binding [6]: binds

From publication PMC7864068, “α2-Macroglobulin-like protein 1 can conjugate and inhibit proteases through their hydroxyl groups, because of an enhanced reactivity of its thiol ester” (The Journal of Biological Chemistry, 2021)
